Reference: patent US20010056104A1, “Treatment of ocular hypertension and glaucoma” (priority 2000, published 2001)
At least one compound was matched to its structure with a doubt left.

Test system: prostaglandin receptor sites in bovine corpus luteal membranes
Test: Ligand binding assay in bovine corpus luteal membranes
Settings: competition studies
Procedure: In ligand binding studies, the specificity of labeled unoprostone isopropyl and the metabolite binding to prostaglandin receptor sites in bovine corpus luteal membranes was determined. This tissue expresses most of the PG receptors including an abundance of FP receptors. In signal transduction studies, the mobilization of intracellular calcium using Fluorescence Imaging technique in the primary culture of human ciliary muscle cells and cyclic AMP generation in rabbit iris-ciliary body was measured.
This method is well described in the literature. […] Free unbound ligands were separated by rapid filtration using a millipore filtration assembly. Membrane bound radioactivity retained by the filter was counted. It is important to define the following terms for appreciation of the binding data:
Total binding is defined as the amount bound in the absence of unlabeled ligand.
Specific binding is defined as the binding displaced by unlabeled ligand.
Non-specific binding is the binding not displaced by unlabeled ligand.

CS(=O)(=O)NC(=O)CCC/C=C\C[C@H]1C(=O)C[C@@H](O)[C@@H]1/C=C/[C@@H](O)COc1ccccc1 [sulprostone]
displacement of bound 3H-unoprostone isopropyl by unlabeled competing ligand: did not displace
